These results are taken from paper PMC5118709, “Identification of Polo-like kinase 1 interaction inhibitors using a novel cell-based assay” (Scientific Reports, 2016).

No constants are given. Whether binding was seen depends on the method and setting. For part of these data: In cells and extracts the contact can be indirect. Some entries that bind do so weakly or less than the wild type. For part of these data: Tags and fused reporters may be left off the sequences shown.

Assay [1] addresses T1, FITC-GPMQS{T}PLNG (FITC-labeled PBD-binding phosphopeptide).
T1 sequence (peptide, {T}, phosphorylated threonine (phosphopeptide); FITC on the N-terminus): GPMQSTPLNG
Briefly: fluorescence polarisation; His-PBD with the phosphopeptide, after dialysis against 50 mM NaH2PO4 pH 8, 400 mM NaCl, 1 mM EDTA, 10% glycerol, 0.01% NP-40; data not shown; both purified. In general terms: In fluorescence polarisation assays a small probe gives low polarisation when free and higher when bound to something large.

Assay [2] addresses human Plk1 C-terminally fused to RLucII (Plk1-Luc) (human) (UniProt P53350). In words: FRET or BRET; BRET in live HEK293T cells; transient transfection with a constant amount of RLucII plasmid (40 ng) and increasing GFP10 plasmid (0-400 ng), read 48 h later in Tyrode solution with coelenterazine 400a; also a clonal stable Plk1-Luc/GFP-Map line. In general terms: Bioluminescence resonance energy transfer reports proximity on the nanometre scale.

Assay [3] concerns the target human Plk1 N-terminally fused to GFP10 (GFP-Plk1) (human) (UniProt P53350). Briefly: co-IP; LUMIER: HEK293T cells stably expressing Map-Luc/GFP-Plk1, treated 2 h with compounds (10-25 uM; Cpd 16, TQ, PPG, BI2536 and others) or DMSO, lysed in IP buffer (20 mM Tris pH 7.5, 150 mM NaCl, 0.5% NP-40); GFP-Plk1 precipitated with anti-GFP and protein A magnetic beads, co-purified Map-Luc read by luminescence.

On to “His-PBD_(326-603) (from UniProt P53350 326-603) (domain or fragment)”, for which the binding entry in assay [1] was “binds”.

B1: Drosophila Map205 fragment 254-416 N-terminally fused to GFP10 (GFP-Map) (domain or fragment, UniProt P23226 254-416)
chain: PLPAAEDPLPGVQPRPFLPGGTLDDLVAESPRKEFARINMDGIAVPDEREFDIEADMRPHELEQESDTFGAGHLEMQLLNGIGTADQAALRDVLDHGPETSVDMELPLDQVPNDADIMKQSIYAEHNSSIEDILNSVQPLPIQTCDDKELIHVEEKEHVSKSP
With B1, the binding entry in assay [2] is “binds”.

B2: Drosophila Map205 fragment 254-416 C-terminally fused to RLucII (Map-Luc) (domain or fragment, UniProt P23226 254-416)
chain: B1 chain
Consider B2, for which the binding entry in assay [3] was “binds”.
